In paper doi:10.1101/2023.09.07.556670:
These are yes or no findings as the source states them, for the method shown. Binding seen in cells or lysates may run through a third protein. These calls come from enrichment with a bait or labelling near it, and not all partners need be listed.

biological target: FLAG-tagged full-length NS5 of tick-borne encephalitis virus (TBEV) (tick-borne encephalitis virus (TBEV)) (UniProt Q01299); test: affinity purification with mass spectrometry

How did the binding turn out when ATRX (from UniProt P46100 1-2492) was run?
The binding was “binds”.

For SMARCA4 (from UniProt P51532 1-1647), which binding is on record?
The binding was “binds”.

Which binding does the source give for “endogenous TYK2 (from UniProt P29597 1-1187)” here?
Its binding is “binds”.
